PubChem BioAssay AID686938 – Drosophila RNAi Screening Center, 2013

Test: 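Fly genes required for calcium entry once internal stores are emptied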 (primary screen)
Cell system: Drosophila S2R+ cells
Knock-down reagent: long dsRNA against Drosophila genes, about 0.25 µg dsRNA per well, roughly 10,000 cells
Time to read-out: 5 days of knock-down before the calcium assay
Treatment: thapsigargin (SERCA pump blocker) to empty calcium stores; entry signal taken 4 min after adding it
Read-out: 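Per-well fluo-4 fluorescence in two replicates, unnormalised, measured in resting cells and 4 min after store depletion by the SERCA blocker thapsigargin; ratio of the two present in few wells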
Scale: calcium entry signal: higher = stronger calcium signal after store depletion; resting calcium signal: higher = higher resting calcium signal
Hit rule: 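Hit if the duplicate-averaged plate z-score for entry over resting signal is under −3; wells with weak total dye signal (Fmax z < −2) or more than 5 off-targets removed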
Meaning of the calls: active = strongly reduced calcium entry; inactive = no strong reduction
In all, the deposit lists about 23,000 reagents; this is an unselected part of those that have a named target and a result. Over the whole deposit, 75 (0.33%) were called active. 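Raw plate signals without normalisation; calls rest on plate z-scores that were not deposited; ratio present for only 364 wells.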 Not given: the dose of the treatment.

The opening 3 records as a preview:
no.	gene knocked down	DRSC id	calcium entry signal, replicate 1 (fluorescence units)	calcium entry signal, replicate 2 (fluorescence units)	resting calcium signal, replicate 1 (fluorescence units)	resting calcium signal, replicate 2 (fluorescence units)	call
1	TM9SF2	DRSC03197	2.13e7		1.19e7		inactive
2	GXIVsPLA2	DRSC10243	3.82e7	5.03e7	1.78e7	3.43e7	inactive
3	CecC	DRSC16606	3.29e7	4.66e7	1.72e7	1.97e7	inactive

Main list, from the start:
no.	gene knocked down	DRSC id	calcium entry signal, replicate 1 (fluorescence units)	calcium entry signal, replicate 2 (fluorescence units)	resting calcium signal, replicate 1 (fluorescence units)	resting calcium signal, replicate 2 (fluorescence units)	call
1	TM9SF2	DRSC03197	2.13e7		1.19e7		inactive
2	GXIVsPLA2	DRSC10243	3.82e7	5.03e7	1.78e7	3.43e7	inactive
3	CecC	DRSC16606	3.29e7	4.66e7	1.72e7	1.97e7	inactive
4	eIF4G1	DRSC17218	2.28e7	2.26e7	1.36e7	1.28e7	inactive
5	GIIIspla2	DRSC18094	2.18e7	3.08e7	1.13e7	1.59e7	inactive
6	RpL21	DRSC03704	1.41e7	1.22e7	9.84e6	8.99e6	inactive
7	Pomp	DRSC03201	8.11e6		6.69e6		inactive
8	CG6550	DRSC07001	2.44e7	2.45e7	1.06e7	1.15e7	inactive
9	Orp8	DRSC15110	3.01e7	5.80e7	4.24e7	2.72e7	inactive
10	Orp8	DRSC15712	3.84e7	3.95e7	1.92e7	1.77e7	inactive
11	dsh	DRSC19803	3.11e7	5.78e7	1.56e7	2.65e7	inactive
12	CG3808	DRSC10377	1.78e7	3.75e7	9.92e6	1.65e7	inactive
13	PolE4	DRSC04105	1.68e7	2.50e7	1.05e7	1.14e7	inactive
14	CG43088	DRSC19055	3.34e7	4.28e7	1.76e7	1.83e7	inactive
15	CG43088	DRSC21407	3.54e7	3.66e7	2.04e7	1.75e7	inactive
16	CG32376	DRSC22754	4.02e7	3.57e7	2.22e7	1.69e7	inactive
17	garz	DRSC07193	2.39e7	5.30e7	1.60e7	2.11e7	inactive
18	Pura	DRSC08891	4.47e7	5.42e7	2.35e7	2.43e7	inactive
19	Pura	DRSC10862	3.43e7	4.51e7	1.52e7	2.12e7	inactive
20	Pura	DRSC10864	3.56e7	4.89e7	1.56e7	2.41e7	inactive
21	Pura	DRSC10865	3.40e7	5.10e7	1.71e7	2.37e7	inactive
22	Pura	DRSC10866	3.52e7	5.52e7	1.64e7	2.36e7	inactive
23	CG42288	DRSC06381	3.70e7	3.19e7	1.77e7	1.54e7	inactive
24	CG4287	DRSC15559	5.10e7	2.05e7	2.23e7	9.97e6	inactive
25	Burs	DRSC14595	2.13e7	3.17e7	1.29e7	4.45e7	inactive
26	CG15570	DRSC18058	3.07e7	5.49e7	1.52e7	2.46e7	inactive
27	Nup98-96	DRSC14209	1.86e7	2.02e7	1.27e7	1.17e7	inactive
28	Nup98-96	DRSC14210	2.63e7	2.23e7	1.64e7	1.37e7	inactive
29	Tdrd3	DRSC10016	3.65e7	5.70e7	1.99e7	2.32e7	inactive
30	Ssl	DRSC04657	4.14e7	4.79e7	2.16e7	2.20e7	inactive
31	CG7627	DRSC03065	7.32e7		2.51e7		inactive
32	ppl	DRSC11899	3.25e7	4.35e7	1.59e7	2.93e7	inactive
33	CG6144	DRSC02934	5.32e7	2.30e7	2.39e7	1.17e7	inactive
34	Osi3	DRSC12175	4.45e7	3.41e7	1.98e7	1.62e7	inactive
35	cwo	DRSC17072	3.35e7	4.11e7	2.08e7	2.24e7	inactive
36	sa	DRSC11649	2.73e7	3.84e7	1.27e7	1.77e7	inactive
37	CG2915	DRSC06842	3.85e7	3.25e7	1.61e7	1.55e7	inactive
38	CG33459	DRSC05615	2.49e7	4.14e7	1.10e7	1.84e7	inactive
39	msopa	DRSC11895	3.08e7	4.77e7	1.63e7	2.47e7	inactive
40	msopa	DRSC23240	3.48e7	3.77e7	1.79e7	1.69e7	inactive
41	Tbcb	DRSC06067	3.52e7	3.14e7	1.66e7	1.56e7	inactive
42	CG30183	DRSC04450	3.97e7	4.99e7	2.08e7	2.24e7	inactive
43	CG30183	DRSC04472	4.10e7	4.55e7	2.16e7	2.03e7	inactive
44	Cpr67Fb	DRSC10314	2.56e7	3.11e7	1.26e7	1.48e7	inactive
45	t-cup	DRSC01254	4.13e7	4.79e7	2.06e7	2.01e7	inactive
46	CG32452	DRSC11581	3.33e7	4.13e7	1.78e7	1.91e7	inactive
47	CG32452	DRSC22250	2.02e7	4.62e7	1.11e7	2.10e7	inactive
48	dy	DRSC20325	3.91e7	6.60e7	1.88e7	2.82e7	inactive
49	RpS27	DRSC14244	1.41e7	1.57e7	1.01e7	1.06e7	inactive
50	CG17826	DRSC10289	3.36e7	4.61e7	1.70e7	2.03e7	inactive
51	eRF3	DRSC03322	3.51e7	2.56e7	1.82e7	1.47e7	inactive
52	CG17270	DRSC15209	4.34e7	3.50e7	1.97e7	1.54e7	inactive
53	Gdi	DRSC03330	5.04e7		2.46e7		inactive
54	CG34227	DRSC06788	2.66e7	2.90e7	1.36e7	1.24e7	inactive
55	CG34227	DRSC07034	3.01e7	2.58e7	1.43e7	1.18e7	inactive
56	CG15753 (retired record)	DRSC18982	2.73e7	2.83e7	1.57e7	1.36e7	inactive
57	CG15753 (retired record)	DRSC19503	4.02e7	3.91e7	1.78e7	1.75e7	inactive
58	CG15753 (retired record)	DRSC19716	3.77e7	5.23e7	1.91e7	2.41e7	inactive
59	CG15753 (retired record)	DRSC19717	5.05e7	4.47e7	2.45e7	2.09e7	inactive
60	CG15753 (retired record)	DRSC19718	2.81e7	3.55e7	1.89e7	2.20e7	inactive
61	CG15753 (retired record)	DRSC22985	5.08e7	2.62e7	2.57e7	1.19e7	inactive
